Laboratory results as given in PMC11555231.
No constants are given. Whether binding was seen depends on the method and setting. In cells and extracts the contact can be indirect. Some entries that bind do so weakly or less than the wild type.

Experiments:
[1] = biological target: human PADI4 stably expressed in mouse ES cells (hPADI4-stable) (human) (UniProt Q9UM07); test: pull-down; cellular hPADI4 isolated from lysate of hPADI4-stable mES cells by its ligand bio-PADI4_7 on streptavidin beads; partners detected by immunoblot
[2] = biological target: human PADI4 stably expressed in E14 mouse embryonic stem cells (hPADI4-stable) (human) (UniProt Q9UM07); test: pull-down; PADI4 isolated through bio-PADI4_7 on streptavidin beads from lysate of hPADI4-stable mES cells; associated proteins detected by immunoblot (Fig. S16B)

- binding [1]: binds
- binding [2]: binds
Substance: Impdh2 (from UniProt P24547 1-514)
